# Results from PubChem BioAssay AID901 (National Center for Advancing Translational Sciences (NCATS), 2007).
# Some of the results follow. These are further read-outs of the screen, such as a control signal, another cell line or another target. No call is given for them. Compounds called inactive in the main read-out are mostly missing here. Potencies come from curve fits of mixed quality, noted in brackets.
# Test: qHTS Assay for Identifying the Cell-Membrane Permeable IMPase Inhibitors
# Conditions: CHO-M1 cells, IP1 accumulation, HTRF TR-FRET ratio; measured here: donor channel 620 nm AC50
row,Compound,AC50
1,CN(C)c1ccc(-n2cccc2/C=C2/SC(=Nc3ccc(F)cc3)NC2=O)cc1,"20 µM [rising, single point]"
2,COC(=O)c1c(N)c(C#N)c2n1CCCCC2,"0.501 µM [falling, single point]"
3,COc1ccc(S(=O)(=O)NCc2ccc(C(=O)O)cc2)cc1,"0.794 µM [falling, single point]"
4,CCOC(=O)CSc1nncc2ccc(OC)c(OC)c12,"0.251 µM [falling, full curve, poor fit]"
5,O=C1NC(=S)S/C1=C1\Sc2ccccc2N1CCCS(=O)(=O)O,"25.1 µM [falling, single point]"
6,N#Cc1nc(-c2cccs2)oc1NCc1ccc2c(c1)OCO2,"12.6 µM [rising, single point]"
7,CCn1nccc1C(=O)Nc1cc(Cl)cc(Cl)c1,"5.01 µM [falling, single point]"
8,O=C(c1ccccc1)c1ccc(N2CCOCC2)c(NC(=O)c2ccco2)c1,"3.98 µM [falling, full curve, poor fit]"
9,CCCCn1c(NC(C)CC)nc2c1c(=O)[nH]c(=O)n2C (stereo not drawn),"10 µM [falling, partial curve]"
10,c1coc(-c2nnc3sc(-c4cccs4)nn23)c1,"0.2 µM [falling, full curve, poor fit]"
11,S=c1[nH]nc(-c2cccc(Br)c2)o1,"15.8 µM [rising, partial curve]"
12,CCc1ccc2c(c1)cc(CN(C(=S)Nc1ccc(Cl)cc1)C1CC1)c1nnnn12,"31.6 µM [rising, single point]"
13,O=C(c1cc2c(s1)-c1ccccc1OC2)N1CCN(c2ccccn2)CC1,"12.6 µM [rising, partial curve]"
14,COC(=O)c1ccccc1NC(=O)c1ccc(-c2ccccc2F)o1,"35.5 µM [rising, single point]"
15,COc1ccc(C)cc1Nc1nc2ccccc2c2nnc(C)n12,"5.62 µM [rising, single point]"
16,CCOC(=O)CSC1=N/C(=C\c2cccnc2)C(=O)N1c1ccc(OC)cc1,"35.5 µM [rising, partial curve]"
17,Cc1cc(C)c2c(=O)n(-c3ccccc3)[nH]c2n1,"31.6 µM [falling, single point]"
18,Cc1ccc(C)c2sc(NC(=O)c3ccc(N4CCCCC4)c([N+](=O)[O-])c3)nc12,"1 µM [falling, partial curve, poor fit]"
19,COc1cccc(C2/C(=C(\O)c3ccc(OC)c(OC)c3)C(=O)C(=O)N2c2cc(C)on2)c1 (stereo not drawn),"12.6 µM [rising, partial curve]"
20,CCN1C(=O)c2ccccc2S(=O)c2ccc(C(=O)N3CCCC3)cc21 (stereo not drawn),"6.31 µM [falling, partial curve, poor fit]"
21,O=C(NCCCc1ccccc1)C1CC(=O)N(c2ccc3c(c2)OCCO3)C1 (stereo not drawn),"31.6 µM [falling, single point]"
22,CCCCNC(=O)CCSc1nc2nc(C)cc(C)n2n1,"6.31 µM [rising, single point]"
23,COc1cc(NC(=O)c2ccc(COc3ccccc3Br)o2)cc(OC)c1OC,"0.562 µM [falling, full curve]"

# Part of the list above in order of SMILES length, ascending.
row,Compound,AC50
4,CCOC(=O)CSc1nncc2ccc(OC)c(OC)c12,"0.251 µM [falling, full curve, poor fit]"
20,CCN1C(=O)c2ccccc2S(=O)c2ccc(C(=O)N3CCCC3)cc21 (stereo not drawn),"6.31 µM [falling, partial curve, poor fit]"
1,CN(C)c1ccc(-n2cccc2/C=C2/SC(=Nc3ccc(F)cc3)NC2=O)cc1,"20 µM [rising, single point]"

# (list continues)

row,Compound,AC50
1,CCOc1ccccc1NC(=O)c1ccc(NC(=O)c2ccco2)cc1,"10 µM [falling, partial curve]"
2,CC(C)C(=O)Nc1nnc(CCc2nnc(NC(=O)C(C)C)s2)s1,"0.126 µM [falling, full curve]"
3,O=C(NCc1ccccc1)N1CCn2c(nc3ccccc32)C1,"0.251 µM [falling, full curve]"
4,CCSc1nnc(NC(=O)c2ccc3ccccc3n2)s1,"31.6 µM [falling, single point]"
5,Fc1ccc(Br)cc1C1C=C(c2ccc(Br)s2)Nc2ncnn21 (stereo not drawn),"25.1 µM [rising, partial curve, poor fit]"
6,COc1ccc(/C=N/NC(=O)c2cccc([N+](=O)[O-])c2)cc1OC(=O)c1ccccc1,"0.0794 µM [falling, full curve, poor fit]"
7,CCOC(=O)N1CCN(C(=O)C2CCN(C(=O)c3cc4sccc4n3CC)CC2)CC1,"3.55 µM [rising, partial curve, poor fit]"
8,O/N=C1/CCSc2ccccc21,"3.16 µM [rising, partial curve]"
9,O=C(O)c1cc(S(=O)(=O)N2CCCCCC2)c(Cl)cc1Cl,"0.0794 µM [rising, full curve, poor fit]"
10,O=c1nc2s/c(=C\c3ccco3)c(=O)n2nc1Cc1ccc(F)cc1,"25.1 µM [falling, partial curve, poor fit]"
11,O=S(=O)(c1ccc(Cl)cc1)N1CCCC1c1nc(-c2cccc(Cl)c2)no1 (stereo not drawn),"0.2 µM [falling, full curve]"
12,CCOCCCNC(=O)Cn1ncc2c(=O)oc3ccccc3c21,"15.8 µM [rising, partial curve]"
13,CCn1c(C)cc2c(c1=O)C(c1ccccc1Br)C(C#N)=C(N)O2 (stereo not drawn),"0.0891 µM [falling, full curve, poor fit]"
14,Cc1ccccc1NC(=S)Nc1ccc(Br)cc1,"35.5 µM [rising, single point]"
15,Cc1cc(NC(=O)CSc2nc3ccsc3c(=O)n2NC(=O)c2ccccc2)no1,"0.631 µM [falling, full curve]"
16,COc1ccccc1NC(=O)C1=C(C)Nc2nc(SC)nn2C1c1ccccc1Cl (stereo not drawn),"0.02 µM [falling, full curve, poor fit]"
17,Cc1cccc(OCc2nc(C#N)c(NCCN(C)C)o2)c1,"0.0447 µM [falling, full curve, poor fit]"
18,O=c1cc(N2CCc3ccccc3C2)[nH]c(=O)n1-c1ccc(Cl)cc1,"0.794 µM [rising, full curve, poor fit]"
19,Cc1ccc2nc(SCCC(=O)O)cc(C)c2c1,"12.6 µM [rising, partial curve]"
20,COC(=O)C1=C(N)N(c2ccc(F)cc2)C2=C(C(=O)CCC2)C1c1ccc2c(c1)OCO2 (stereo not drawn),"0.00355 µM [falling, full curve, poor fit]"
21,CCN(CC)S(=O)(=O)c1ccc(NC(=O)Cn2c(=O)sc3ccccc32)cc1,"1.26 µM [falling, single point]"
22,COCCNC(=O)C(=O)N/N=C/c1ccccc1C(F)(F)F,"1 µM [falling, full curve]"
23,CCCCCn1c(SCC(=O)OCC)nc2cc(C(=O)N3CCC(C(N)=O)CC3)ccc2c1=O,"0.0501 µM [rising, full curve, poor fit]"

# An excerpt of these results, as tab-separated lines.
row	Compound	AC50
21	O=C(NCCCc1ccccc1)C1CC(=O)N(c2ccc3c(c2)OCCO3)C1 (stereo not drawn)	31.6 µM [falling, single point]
22	CCCCNC(=O)CCSc1nc2nc(C)cc(C)n2n1	6.31 µM [rising, single point]

# (listing goes on)

row,Compound,AC50
1,CC(C)C(=O)NC(c1ccco1)c1c(O)ccc2ccccc12 (stereo not drawn),"3.16 µM [rising, full curve]"
2,c1ccc(-c2cc3n(c2)CCc2ccccc2-3)cc1,"15.8 µM [falling, single point]"
3,Cc1csc2ncc(C(=O)N3CCCc4ccccc43)c(=O)n12,"0.0562 µM [rising, full curve, poor fit]"
4,FC(F)(F)c1cc(-c2ccco2)nc(NCc2ccco2)n1,"0.126 µM [falling, full curve]"
5,Nc1nnc(COc2ccccc2)s1,"0.501 µM [falling, full curve]"
6,O=c1c2ccccc2nc2n1CCCS2,"3.98 µM [rising, partial curve]"
7,C/C(N)=C(/C#N)C(=O)CSc1nnc(Nc2cccc(C)c2C)s1,"0.316 µM [falling, full curve]"
8,CCN1CCN(CC(=O)NC2CCCC2)C(=O)C1=O,"3.16 µM [rising, single point]"
9,COc1cc2c(c(OC)c1)C(c1cccc(F)c1F)CC(=O)N2 (stereo not drawn),"35.5 µM [falling, partial curve, poor fit]"
10,Cc1ccccc1NC(=O)CSc1nnnn1C,"0.794 µM [rising, full curve, poor fit]"
11,CN(C(=O)c1cccnc1)c1nnc(-c2ccccn2)s1,"10 µM [falling, partial curve, poor fit]"
12,Cn1ncc(C#N)c1/N=C/N1CCOCC1,"20 µM [rising, single point]"
13,Cc1ccccc1C(=O)c1cccn1CC(=O)NCC1CCCO1 (stereo not drawn),"1.58 µM [falling, full curve]"
14,Cn1c(SCC(=O)NCc2ccc3c(c2)OCO3)nnc1-c1cc2ccccc2cc1O,"0.316 µM [falling, partial curve, poor fit]"
15,COc1cc(C(=O)O/N=C2/C=CC(=O)C(C)=C2C)cc(OC)c1OC,"0.501 µM [rising, full curve, poor fit]"
16,COc1ccc(C2c3c(oc4ccccc4c3=O)C(=O)N2c2ccc(C)cn2)cc1OC (stereo not drawn),"2.24 µM [rising, partial curve]"
17,CCOC(=O)C(NC(C)=O)(Nc1ccc(S(=O)(=O)Nc2ccncn2)cc1)C(F)(F)F (stereo not drawn),"31.6 µM [falling, single point]"
18,Cc1cc(C)n(-c2nncc(-c3ccccc3)n2)n1,"6.31 µM [falling, single point]"
19,CNS(=O)(=O)c1cccc(C(=O)OCC(=O)Nc2sc3c(c2C#N)CCCCC3)c1,"3.98 µM [rising, single point]"
20,COc1ccc(-n2nc(C(=O)NCC(=O)NCc3ccco3)c3ccccc3c2=O)cc1,"3.16 µM [falling, partial curve, poor fit]"
21,O=C(Nc1c(F)cc(F)cc1Br)c1cc(-c2ccco2)on1,"2.51 µM [rising, single point]"
22,COC(=O)c1sccc1NC(=O)c1cc2c(s1)CCCC2,"31.6 µM [falling, single point]"
